According to patent publication US11534437B2, “Methods of treating radiation induced gastrointestinal syndrome (RIGS) and related disease states using compound 512” (BCN Biosciences L.L.C., priority 2017, dated 2022):
At least one compound was matched to its structure with a doubt left.

Experiments:
NCI 60 cancer cell lines = assay: NCI 60 cancer cell line screening; type: cell-based; settings: control vehicle treated (DMSO), FIG. 3
human lung organoids = assay: Radiation injury in human lung organoids (ALI culture); type: cell-based
[1] = system: HEK293 cells having TCF/LEF luciferase reporter construct; assay: TCF/LEF luciferase reporter assay for canonical WNT activity; type: cell-based; settings: 512 28.78 μM, 24 hr, FIG. 4
Protocol: To determine the canonical WNT activity in 512 (28.78 μM) HEK293 cells having TCF/LEF luciferase reporter construct were treated with 512 or vehicle control. LiCl (10 mM) treatment was used as positive control for luciferase activity. Luciferase activity was determined 24 hr after using Dual-Luciferase® Reporter Assay System (Promega) as per manufacturer's protocol. HEK293 cells having FOPFLASH construct were used as negative control. […] WNT-β catenin signaling is well known to promote the self renewal and differentiation of LGR5+ epithelial (lung, oral, intestinal) stem cells.

plasma cytokines = assay: Plasma cytokine levels in rodents after lower thoracic radiation; type: in vivo; settings: 5 mg/kg 512, lower thoracic radiation
Excerpt: Ctl, control with no treatment. LTI, lower thoracic radiation, LTI+512, radiation, and 512. The cytokine phenotype is anti-inflammatory where IL-6 is an anti-inflammatory cytokine required for controlling local or systemic acute inflammatory responses and IL-1 is pro inflammatory and so forth.

C57BI6 mice = assay: Survival of mice after abdominal irradiation (AIR), RIGS model; type: in vivo; settings: 14-15 Gy AIR, 512 at 24 hrs post AIR, without symptoms of RIGS

Question: With O=[N+]([O-])c1ccc(S(=O)(=O)N2CCN(c3ccccc3)CC2)cc1 [Compound 512, 1-[(4-nitrobenezene)sulfonyl]-4-phenyl piperazine] as the molecule, how does the “percent growth over control (tumor growth promotion)” value (NCI 60 cancer cell lines) read?
Answer: does not promote tumor growth

Question: And the “budding organoid to total organoid ratio compared to irradiated control” value (human lung organoids; FIG. 2, p<0.004, unpaired two tailed t test)?
Answer: higher

Question: What about the “rescue of organoids from radiation toxicity / budding structure” value (human lung organoids; human lung organoids, treatment after radiation exposure, FIG. 1) of the same molecule?
Answer: rescued those organoids from radiation toxicity

Question: What about the “luciferase activity compared to vehicle treated cells” value [1] of the same molecule?
Answer: significantly increases luciferase activity

Question: And the cytokine phenotype (plasma cytokines)?
Answer: anti-inflammatory

Question: And the survival post-exposure (C57BI6 mice)?
Answer: > 30 days
